Source: paper PMC2890305 (Chemical biology & drug design, 2010)

Target: T1, Aminopeptidase N (APN) (Rattus norvegicus, UniProt P15684)
T1 sequence (P15684 33-965 limits assumed): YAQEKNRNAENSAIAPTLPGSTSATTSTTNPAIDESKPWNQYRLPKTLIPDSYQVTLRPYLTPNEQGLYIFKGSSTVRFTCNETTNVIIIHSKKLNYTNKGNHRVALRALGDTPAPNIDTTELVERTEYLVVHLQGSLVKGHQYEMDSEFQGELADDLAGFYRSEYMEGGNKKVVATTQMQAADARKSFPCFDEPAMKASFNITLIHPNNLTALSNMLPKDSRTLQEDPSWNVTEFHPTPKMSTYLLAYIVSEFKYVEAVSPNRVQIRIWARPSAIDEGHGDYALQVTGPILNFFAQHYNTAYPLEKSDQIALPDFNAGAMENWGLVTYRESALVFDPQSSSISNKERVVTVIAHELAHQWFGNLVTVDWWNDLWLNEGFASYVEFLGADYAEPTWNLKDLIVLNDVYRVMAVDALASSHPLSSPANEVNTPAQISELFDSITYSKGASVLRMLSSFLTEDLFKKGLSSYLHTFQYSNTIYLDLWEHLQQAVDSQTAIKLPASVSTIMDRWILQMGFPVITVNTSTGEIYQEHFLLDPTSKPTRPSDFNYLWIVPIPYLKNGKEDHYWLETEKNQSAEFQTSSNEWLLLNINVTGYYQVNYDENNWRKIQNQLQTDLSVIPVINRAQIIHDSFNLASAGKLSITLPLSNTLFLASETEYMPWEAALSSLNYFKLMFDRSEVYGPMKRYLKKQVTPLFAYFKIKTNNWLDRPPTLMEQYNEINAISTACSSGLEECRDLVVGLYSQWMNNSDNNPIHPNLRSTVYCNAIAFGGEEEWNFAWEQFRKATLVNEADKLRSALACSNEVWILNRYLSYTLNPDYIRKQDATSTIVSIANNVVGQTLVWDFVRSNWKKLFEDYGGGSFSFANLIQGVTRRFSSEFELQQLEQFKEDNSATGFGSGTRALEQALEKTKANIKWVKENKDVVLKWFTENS
Assay: Inhibition of APN aminopeptidase activity, increasing peptide concentrations
Assay type: biochemical

IC50: ~300 µM
Compound: N=C(N)NCCC[C@@H]1NC(=O)CNC(=O)[C@H](CC(N)=O)NC(=O)[C@@H](N)CSSC[C@@H](C(=O)O)NC1=O [CNGRC]
